From publication doi:10.1101/2019.12.23.887547
These are yes or no findings as the source states them, for the method shown. Some binding calls cover weakened binding; strength is not graded here. Where a sequence is shown, tags or fusion partners need not be part of it.

Sequences of proteins named here, by UniProt entry; tags and fusion partners are left off. A change or cut given only in a name is not applied to a line headed by its entry. Residues count along the entry.
UniProt P83916: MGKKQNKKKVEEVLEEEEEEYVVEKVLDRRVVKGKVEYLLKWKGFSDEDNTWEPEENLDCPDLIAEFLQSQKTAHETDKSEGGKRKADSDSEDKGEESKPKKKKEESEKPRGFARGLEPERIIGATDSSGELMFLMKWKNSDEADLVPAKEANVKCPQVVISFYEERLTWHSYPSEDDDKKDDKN
UniProt Q13185: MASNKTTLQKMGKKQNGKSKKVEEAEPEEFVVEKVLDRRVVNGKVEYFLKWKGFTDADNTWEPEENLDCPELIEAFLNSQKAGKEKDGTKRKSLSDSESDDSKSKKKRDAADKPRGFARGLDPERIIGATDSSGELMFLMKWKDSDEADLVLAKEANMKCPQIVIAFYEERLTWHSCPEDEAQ
UniProt P45973: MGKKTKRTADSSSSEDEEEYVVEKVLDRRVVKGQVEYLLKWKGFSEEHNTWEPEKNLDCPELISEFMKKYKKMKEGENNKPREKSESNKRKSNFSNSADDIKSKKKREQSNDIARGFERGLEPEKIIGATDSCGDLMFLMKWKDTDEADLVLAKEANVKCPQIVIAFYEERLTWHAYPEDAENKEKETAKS
UniProt O75530: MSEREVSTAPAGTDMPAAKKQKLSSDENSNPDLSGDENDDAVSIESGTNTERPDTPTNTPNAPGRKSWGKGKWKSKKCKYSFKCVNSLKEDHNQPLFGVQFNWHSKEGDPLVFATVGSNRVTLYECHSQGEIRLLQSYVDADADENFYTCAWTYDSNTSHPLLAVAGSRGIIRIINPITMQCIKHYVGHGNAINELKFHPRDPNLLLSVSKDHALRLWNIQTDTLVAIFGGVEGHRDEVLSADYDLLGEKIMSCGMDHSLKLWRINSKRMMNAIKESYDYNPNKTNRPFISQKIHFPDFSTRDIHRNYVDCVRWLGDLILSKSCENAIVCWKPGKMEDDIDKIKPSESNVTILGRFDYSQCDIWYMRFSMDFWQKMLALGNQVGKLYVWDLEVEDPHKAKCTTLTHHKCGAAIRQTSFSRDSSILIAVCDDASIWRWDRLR
EED amino acids 142-200 (yeast two-hybrid fusion): residues 142-200 of O75530
UniProt Q99496: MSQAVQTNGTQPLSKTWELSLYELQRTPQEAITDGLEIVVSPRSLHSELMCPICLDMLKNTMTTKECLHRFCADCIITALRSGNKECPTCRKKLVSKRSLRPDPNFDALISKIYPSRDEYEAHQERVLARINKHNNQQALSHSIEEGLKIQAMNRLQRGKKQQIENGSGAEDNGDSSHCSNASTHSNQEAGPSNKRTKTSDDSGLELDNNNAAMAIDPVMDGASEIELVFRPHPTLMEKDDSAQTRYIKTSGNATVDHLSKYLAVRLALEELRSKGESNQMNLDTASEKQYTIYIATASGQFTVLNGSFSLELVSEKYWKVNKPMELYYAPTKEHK

Legend:
Experiment in all cases: two-hybrid
[1] = target: CBX1 (yeast two-hybrid fusion) (human) (UniProt P83916)
[2] = target: CBX3 (yeast two-hybrid fusion) (human) (UniProt Q13185)
[3] = target: CBX5 (yeast two-hybrid fusion) (human) (UniProt P45973)
[4] = target: CBX7 (yeast two-hybrid fusion) (human) (UniProt O95931)
[5] = target: T1, CBX7 amino acids 151-210 (yeast two-hybrid fusion) (human) (UniProt O95931)
T1 sequence: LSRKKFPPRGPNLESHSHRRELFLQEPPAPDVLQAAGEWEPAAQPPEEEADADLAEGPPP

[6] = target: T2, CBX8 (yeast two-hybrid fusion) (human) (UniProt Q9HC52)
T2 sequence: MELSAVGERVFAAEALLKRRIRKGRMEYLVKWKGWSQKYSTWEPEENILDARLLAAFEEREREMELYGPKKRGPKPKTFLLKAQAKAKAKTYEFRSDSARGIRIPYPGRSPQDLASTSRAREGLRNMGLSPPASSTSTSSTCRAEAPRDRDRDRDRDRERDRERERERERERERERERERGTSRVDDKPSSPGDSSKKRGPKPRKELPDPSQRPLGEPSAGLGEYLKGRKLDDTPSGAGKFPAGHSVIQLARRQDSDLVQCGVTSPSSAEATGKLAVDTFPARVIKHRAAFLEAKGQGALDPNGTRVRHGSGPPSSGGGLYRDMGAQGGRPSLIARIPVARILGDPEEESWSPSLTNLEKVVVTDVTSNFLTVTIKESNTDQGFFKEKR

[7] = target: T3, CBX8 amino acids 311-350 (yeast two-hybrid fusion) (human) (UniProt Q9HC52)
T3 sequence: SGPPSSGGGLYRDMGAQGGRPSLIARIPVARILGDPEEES

[8] = target: EED (yeast two-hybrid fusion) (human) (UniProt O75530)
[9] = target: EED amino acids 142-200 (yeast two-hybrid fusion) (human) (UniProt O75530)
[10] = target: RING1B (yeast two-hybrid fusion) (human) (UniProt Q99496)

binding [1]: no binding
binding [2]: no binding
binding [3]: no binding
binding [4]: binds
binding [5]: binds
binding [6]: binds
binding [7]: binds
binding [8]: binds
binding [9]: binds
binding [10]: binds
B1: TEX10 (yeast two-hybrid fusion) (protein, UniProt Q9NXF1 1-929)
chain: MTKKRKRQHDFQKVKLKVGKKKPKLQNATPTNFKTKTIHLPEQLKEDGTLPTNNRKLNIKDLLSQMHHYNAGVKQSALLGLKDLLSQYPFIIDAHLSNILSEVTAVFTDKDANVRLAAVQLLQFLAPKIRAEQISPFFPLVSAHLSSAMTHITEGIQEDSLKVLDILLEQYPALITGRSSILLKNFVELISHQQLSKGLINRDRSQSWILSVNPNRRLTSQQWRLKVLVRLSKFLQALADGSSRLRESEGLQEQKENPHATSNSIFINWKEHANDQQHIQVYENGGSQPNVSSQFRLRYLVGGLSGVDEGLSSTENLKGFIEIIIPLLIECWVEAVPPQLATPVGNGIEREPLQVMQQVLNIISLLWKLSKQQDETHKLESWLRKNYLIDFKHHFMSRFPYVLKEITKHKRKEPNKSIKHCTVLSNNIDHLLLNLTLSDIMVSLANASTLQKDCSWIEMIRKFVTETLEDGSRLNSKQLNRLLGVSWRLMQIQPNREDTETLIKAVYTLYQQRGLILPVRTLLLKFFSKIYQTEELRSCRFRYRSKVLSRWLAGLPLQLAHLGSRNPELSTQLIDIIHTAAARANKELLKSLQATALRIYDPQEGAVVVLPADSQQRLVQLVYFLPSLPADLLSRLSRCCIMGRLSSSLAAMLIGILHMRSSFSGWKYSAKDWLMSDVDYFSFLFSTLTGFSKEELTWLQSLRGVPHVIQTQLSPVLLYLTDLDQFLHHWDVTEAVFHSLLVIPARSQNFDILQSAISKHLVGLTVIPDSTAGCVFGVICKLLDHTCVVSETLLPFLASCCYSLLYFLLTIEKGEAEHLRKRDKLWGVCVSILALLPRVLRLMLQSLRVNRVGPEELPVVGQLLRLLLQHAPLRTHMLTNAILVQQIIKNITTLKSGSVQEQWLTDLHYCFNVYITGHPQGPSALATVY
